The text below walks through data of patent publication US20210260009A1, “METHODS AND COMPOSITIONS FOR THE TREATMENT OF A RENAL DISEASE” (priority 2020, published 2021).

The labels stand for the following.
B1: sp|P0A8A0|YEBC_ECOLI (protein, UniProt P0A8A0 1-246, looked up)
Probable transcriptional …: MAGHSKWANTRHRKAAQDAKRGKIFTKIIRELVTAAKLGGGDPDANPRLRAAVDKALSNNMTRDTLNRAIARGVGGDDDANMETIIYEGYGPGGTAIMIECLSDNRNRTVAEVRHAFSKCGGNLGTDGSVAYLFSKKGVISFEKGDEDTIMEAALEAGAEDVVTYDDGAIDVYTAWEEMGKVRDALEAAGLKADSAEVSMIPSTKADMDAETAPKLMRLIDMLEDCDDVQEVYHNGEISDEVAATL
B2: sp|P64588|YQJI_ECOLI (protein, UniProt P64588 1-207, looked up)
Transcriptional regulator YqjI: MSHHHEGCCKHEGQPRHEGCCKGEKSEHEHCGHGHQHEHGQCCGGRHGRGGGRRQRFFGHGELRLVILDILSRDDSHGYELIKAIENLTQGNYTPSPGVIYPTLDFLQEQSLITIREEEGGKKQIALTEQGAQWLEENREQVEMIEERIKARCVGAALRQNPQMKRALDNFKAVLDLRVNQSDISDAQIKKIIAVIDRAAFDITQLD
B3: sp|P36683|ACNB_ECOLI (protein, UniProt P36683 1-865, looked up)
Aconitate hydratase B: MLEEYRKHVAERAAEGIAPKPLDANQMAALVELLKNPPAGEEEFLLDLLTNRVPPGVDEAAYVKAGFLAAIAKGEAKSPLLTPEKAIELLGTMQGGYNIHPLIDALDDAKLAPIAAKALSHTLLMFDNFYDVEEKAKAGNEYAKQVMQSWADAEWFLNRPALAEKLTVTVFKVTGETNTDDLSPAPDAWSRPDIPLHALAMLKNAREGIEPDQPGVVGPIKQIEALQQKGFPLAYVGDVVGTGSSRKSATNSVLWFMGDDIPHVPNKRGGGLCLGGKIAPIFFNTMEDAGALPIEVDVSNLNMGDVIDVYPYKGEVRNHETGELLATFELKTDVLIDEVRAGGRIPLIIGRGLTTKAREALGLPHSDVFRQAKDVAESDRGFSLAQKMVGRACGVKGIRPGAYCEPKMTSVGSQDTTGPMTRDELKDLACLGFSADLVMQSFCHTAAYPKPVDVNTHHTLPDFIMNRGGVSLRPGDGVIHSWLNRMLLPDTVGTGGDSHTRFPIGISFPAGSGLVAFAAATGVMPLDMPESVLVRFKGKMQPGITLRDLVHAIPLYAIKQGLLTVEKKGKKNIFSGRILEIEGLPDLKVEQAFELTDASAERSAAGCTIKLNKEPIIEYLNSNIVLLKWMIAEGYGDRRTLERRIQGMEKWLANPELLEADADAEYAAVIDIDLADIKEPILCAPNDPDDARPLSAVQGEKIDEVFIGSCMTNIGHFRAAGKLLDAHKGQLPTRLWVAPPTRMDAAQLTEEGYYSVFGKSGARIEIPGCSLCMGNQARVADGATVVSTSTRNFPNRLGTGANVFLASAELAAVAALIGKLPTPEEYQTYVAQVDKTAVDTYRYLNFNQLSQYTEKADGVIFQTAV
B4: sp|P00968|CARB_ECOLI (protein, UniProt P00968 2-1073, looked up)
Carbamoyl phosphate synthase …: PKRTDIKSILILGAGPIVIGQACEFDYSGAQACKALREEGYRVILVNSNPATIMTDPEMADATYIEPIHWEVVRKIIEKERPDAVLPTMGGQTALNCALELERQGVLEEFGVTMIGATADAIDKAEDRRRFDVAMKKIGLETARSGIAHTMEEALAVAADVGFPCIIRPSFTMGGSGGGIAYNREEFEEICARGLDLSPTKELLIDESLIGWKEYEMEVVRDKNDNCIIVCSIENFDAMGIHTGDSITVAPAQTLTDKEYQIMRNASMAVLREIGVETGGSNVQFAVNPKNGRLIVIEMNPRVSRSSALASKATGFPIAKVAAKLAVGYTLDELMNDITGGRTPASFEPSIDYVVTKIPRFNFEKFAGANDRLTTQMKSVGEVMAIGRTQQESLQKALRGLEVGATGFDPKVSLDDPEALTKIRRELKDAGADRIWYIADAFRAGLSVDGVFNLTNIDRWFLVQIEELVRLEEKVAEVGITGLNADFLRQLKRKGFADARLAKLAGVREAEIRKLRDQYDLHPVYKRVDTCAAEFATDTAYMYSTYEEECEANPSTDREKIMVLGGGPNRIGQGIEFDYCCVHASLALREDGYETIMVNCNPETVSTDYDTSDRLYFEPVTLEDVLEIVRIEKPKGVIVQYGGQTPLKLARALEAAGVPVIGTSPDAIDRAEDRERFQHAVERLKLKQPANATVTAIEMAVEKAKEIGYPLVVRPSYVLGGRAMEIVYDEADLRRYFQTAVSVSNDAPVLLDHFLDDAVEVDVDAICDGEMVLIGGIMEHIEQAGVHSGDSACSLPAYTLSQEIQDVMRQQVQKLAFELQVRGLMNVQFAVKNNEVYLIEVNPRAARTVPFVSKATGVPLAKVAARVMAGKSLAEQGVTKEVIPPYYSVKEVVLPFNKFPGVDPLLGPEMRSTGEVMGVGRTFAEAFAKAQLGSNSTMKKHGRALLSVREGDKERVVDLAAKLLKQGFELDATHGTAIVLGEAGINPRLVNKVHEGRPHIQDRIKNGEYTYIINTTSGRRAIEDSRVIRRSALQYKVHYDTTLNGGFATAMALNADATEKVISVQEMHAQIK
B5: sp|P0A8G6|NQOR_ECOLI (protein, UniProt P0A8G6 2-198, looked up)
NAD(P)H dehydrogenase …: AKVLVLYYSMYGHIETMARAVAEGASKVDGAEVVVKRVPETMPPQLFEKAGGKTQTAPVATPQELADYDAIIFGTPTRFGNMSGQMRTFLDQTGGLWASGALYGKLASVFSSTGTGGGQEQTITSTWTTLAHHGMVIVPIGYAAQELFDVSQVRGGTPYGATTIAGGDGSRQPSQEELSIARYQGEYVAGLAVKLNG
B6: sp|P21599|KPYK2_ECOLI (protein, UniProt P21599 2-480, looked up)
Pyruvate kinase II: SRRLRRTKIVTTLGPATDRDNNLEKVIAAGANVVRMNFSHGSPEDHKMRADKVREIAAKLGRHVAILGDLQGPKIRVSTFKEGKVFLNIGDKFLLDANLGKGEGDKEKVGIDYKGLPADVVPGDILLLDDGRVQLKVLEVQGMKVFTEVTVGGPLSNNKGINKLGGGLSAEALTEKDKADIKTAALIGVDYLAVSFPRCGEDLNYARRLARDAGCDAKIVAKVERAEAVCSQDAMDDIILASDVVMVARGDLGVEIGDPELVGIQKALIRRARQLNRAVITATQMMESMITNPMPTRAEVMDVANAVLDGTDAVMLSAETAAGQYPSETVAAMARVCLGAEKIPSINVSKHRLDVQFDNVEEAIAMSAMYAANHLKGVTAIITMTESGRTALMTSRISSGLPIFAMSRHERTLNLTALYRGVTPVHFDSANDGVAAASEAVNLLRDKGYLMSGDLVIVTQGDVMSTVGSTNTTRILTVE
B7: sp|P35340|AHPF_ECOLI (protein, UniProt P35340 1-521, looked up)
Alkyl hydroperoxide reductase …: MLDTNMKTQLKAYLEKLTKPVELIATLDDSAKSAEIKELLAEIAELSDKVTFKEDNSLPVRKPSFLITNPGSNQGPRFAGSPLGHEFTSLVLALLWTGGHPSKEAQSLLEQIRHIDGDFEFETYYSLSCHNCPDVVQALNLMSVLNPRIKHTAIDGGTFQNEITDRNVMGVPAVFVNGKEFGQGRMTLTEIVAKIDTGAEKRAAEELNKRDAYDVLIVGSGPAGAAAAIYSARKGIRTGLMGERFGGQILDTVDIENYISVPKTEGQKLAGALKVHVDEYDVDVIDSQSASKLIPAAVEGGLHQIETASGAVLKARSIIVATGAKWRNMNVPGEDQYRTKGVTYCPHCDGPLFKGKRVAVIGGGNSGVEAAIDLAGIVEHVTLLEFAPEMKADQVLQDKLRSLKNVDIILNAQTTEVKGDGSKVVGLEYRDRVSGDIHNIELAGIFVQIGLLPNTNWLEGAVERNRMGEIIIDAKCETNVKGVFAAGDCTTVPYKQIIIATGEGAKASLSAFDYLIRTKTA

In the data set the test system is E. coli K-12 proteome. Particulars: S-sulfhydrated protein pull-down, TMT LC-MS3; ΔdecR E. coli lysate.
For B1, the ΔdecR is 0.94.

In turn, B2 displayed a ΔdecR of 0.29.

The molecule B3 returned a ΔdecR of 1.04. Consider B4, for which the ΔdecR is listed as 1.52.

Molecule B5 displayed a ΔdecR of 1.39. B6: the ΔdecR worked out at 1.76. Under B7 stands 1.29.
